For test [1], the target named is T1, Ara h 2 (Arachis hypogaea allergen 2) (Arachis hypogaea, UniProt Q6PSU2 22-172).
T1 construct: Peanut allergen; also called nAra h 2; natural Ara h 2
T1 sequence: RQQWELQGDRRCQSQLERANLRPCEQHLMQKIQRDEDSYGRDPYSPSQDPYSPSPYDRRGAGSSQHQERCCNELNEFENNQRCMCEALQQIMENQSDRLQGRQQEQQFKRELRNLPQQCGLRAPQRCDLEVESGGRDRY
Briefly: SPR, 15E3 Fab immobilised, nAra h 2 then Fabs injected in sequence.

Test [2] concerns the target T1, Ara h 2 (Arachis hypogaea allergen 2). Briefly: BLI, 15E3-human IgG1 on anti-human Fc sensor, nAra h 2 then chimeric IgGs in sequence.
For test [3] the target is unchanged. The experiment in a line: ELISA, purified rabbit antibody.
Test [4] has the same target. The experiment in a line: ELISA on Ara h2, scFv-Fc.
Test [5] has the same target. Briefly: ELISA, scFv-Fc.
Test [6] shares this target. Briefly: ELISA.
For test [7] the target is unchanged. Described as shown in the appended examples.
For test [8] the target is unchanged. The experiment in a line: ELISA, antibody titration on coated nAra h 2.
Test [9] deals with T2, Ara h 3 (Arachis hypogaea allergen 3) (Arachis hypogaea).
T2 construct: Peanut allergen; also called Ara h 3.0101; nAra h 3
T2 chain: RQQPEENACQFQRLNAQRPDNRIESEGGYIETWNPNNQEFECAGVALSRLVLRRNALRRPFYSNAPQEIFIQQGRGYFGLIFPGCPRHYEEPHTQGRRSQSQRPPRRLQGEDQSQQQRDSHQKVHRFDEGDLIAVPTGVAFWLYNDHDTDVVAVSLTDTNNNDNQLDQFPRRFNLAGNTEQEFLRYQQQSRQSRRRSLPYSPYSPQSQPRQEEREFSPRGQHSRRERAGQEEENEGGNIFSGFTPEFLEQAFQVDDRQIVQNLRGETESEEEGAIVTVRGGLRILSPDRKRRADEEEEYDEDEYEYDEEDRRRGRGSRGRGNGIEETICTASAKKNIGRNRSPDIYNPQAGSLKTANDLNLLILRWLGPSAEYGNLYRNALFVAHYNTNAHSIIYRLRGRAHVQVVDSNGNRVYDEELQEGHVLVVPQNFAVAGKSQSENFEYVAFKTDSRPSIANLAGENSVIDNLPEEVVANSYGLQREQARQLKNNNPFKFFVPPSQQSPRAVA
The experiment in a line: ELISA, purified rabbit antibody.

Changes are numbered by the printed parent chain. No constants are given. Whether binding was seen depends on the method and setting. Some entries that bind do so weakly or less than the wild type. Sequences can lack the tags named with a protein.

B1: 2F8 Fab (Fab, V domains shown)
VH: EVQLVESGGGLVKPGGSLRLSCAASGFIFSDYNMNWVRQAPGKGLEWVSSITRSSRTIYYADSVKGRFTISRDNAKNSLHLQMNSLRDADTAVYYCAREDFDVSTGPYYMDVWGNGTTVIVSS
VL: EIVLTQSPGTLSLSPGERATLSCRASQSVSNMFLVWYQQKPGQAPRLLMYGASTRATDIPDRFSGSGSGTDFTLTISRLEPEDFAVYYCQQNGNSPYTFGQGTKLEIK
As to B1, the binding result in test [1] is given as “binds”.

B2: 2F8 human-mouse IgG chimera (antibody, V domains shown)
VH: B1 VH
VL: B1 VL
As to B2, the binding entry in [2] was “binds”.

B3: 7G6_rb_IGHV1S47_J3+IGKV1S19_JK1-2 (antibody, V domains shown)
VH: QEQLVESGGGLVQPEGSLTLTCKASGFDFSDYTMHWVRQAPGKGPEWIAAISYGGTNKYYADSVKGRFTISRSTSLNTVTLQMTSLTAVDTATYFCARDSGYRSLLHWGQGTLVTVSS
VL: AAVLTQTPSPVSAAVGGTVTIKCRSSQSLVHRNGYNYLDWYQQKPGQPPKLLIYMASKRASGVPDRFSGSGSGTQFTLTISGVQCDDAATYYCMQALQTWTFGGGTKVVVK
For B3, the binding entry in test [3] is on record as “binds”.

B4: 7G6_rb_IGHV1S47_J3+K66N_IGKV1S19_JK1-2 (antibody, V domains shown)
VH: B3 VH
VL: B3 VL with K58N
notes: Fully rabbit antibody: 7G6 CDRs grafted onto rabbit variable frameworks
As to B4, the binding result in test [3] is reported as “binds”.

B5: 7G6_rb_IGHV1S47_J3+IGKV1S19_JK1-3 (antibody, V domains shown)
VH: B3 VH
VL: B3 VL with F102L, G104P, V108L, V109E, V110I
B5: the binding entry in [3] was “binds”.

B6: 7G6_G8 (Fc fusion, not shown: a dimerising Fc or GST; small tags and cut ends)
scFv: EIVLTQSPATLSLSPGERATLSCRSSQSLVHRNGYNYLDWYQQKPGQAPRLLIYMASKRASGVPARFSGSGSGTDFTLTISSLEPEDSALYYCMQALQTWTFGGGTKLEIKGGGGSGGGGSGGGGSGGGGSEVQLVESGGGLVQPGGSLRLSCAASGFAFNDYTMHWVRQAPGKGLEWVSAISYGGTNKYYADSVKGRFTISRDNSKNTLYLQMNSLRAEDTAVYYCAKDSGYRSLLHWGQGTLVTVSS
With B6, the binding entry in test [4] and in [5] was “binds” in each case.

B7: 15E3 (antibody, V domains shown)
VH: EVQLVESGGALVQPGGSLRLSCAASGFKFSTFYMTWIRQAPGKGLEWVANIKQDGSEKDYLDSVRGRFNISRDNAKSVLYLQMNTLSADDTGVYYCTRNGLQDSYSGDFFDHWGQGILVTVSS
VL: QSVLTQPPSISAAPGQKVTISCSGTGSNIGHNYVSWYQQLPRTAPRLLIFDNTKRPSGIPDRFSGSKSGSSATLGITGLQTGDEAHYFCATWDADLSAVLFGGGTKLTVL
notes: Fully human monoclonal antibody, wild-type variable regions; also called MY006-15E3; 15E3-human IgG1
B7: the binding result in test [6], in test [2], in [7] and in [8] was “binds” throughout.

B8: 15E3 Fab (Fab, V domains shown)
VH: B7 VH
VL: B7 VL
Turning to B8, in test [1], the binding entry was “binds”.

B9: 15E3_rb_IGHV1S8_J5+IGLV2S2_JL5 (antibody, V domains shown)
VH: QKQLVESGGGLDQPAGSLKLSCKDSGFTLSTFYMTWVHQAPGKGLEWIANIKQDGSEKDYLDSVRGRFTISSDNTQNMVDLEMNSLTAADMAIYFCARNGLQDSYSGDFFDHWGQGTLVTVSS
VL: QPALTQPSSVSGALGGSVTITCSGTGSNIGHNYVSWYQQLPGSVPKLLMFDNTKRPSGIPERFSGSKSGTTASLTISGLQPEDEADYYCATWDADLSAVLFGGGTKLTVL
Consider B9, for which the binding result in [3] is reported as “binds”.

B10: 17H9_rb_IGHV1S7_J3+IGKV1S34_JK1-2 (antibody, V domains shown)
VH: QQLKESGGGLVKPGGSLKLCCKASGFTFSTYGMHWVRQAPGKGLEWIGIISPDGGHQDYADPVRGRFTLSRDNAQSTVCLQLNSLTAADTATYFCARTLCARTDCTWVRSDSWGPGTLVTVSS
VL: DVVMTQTPSPVSAAVGGTVTINCRASQRVSGDYLAWYQQKPGQPPKLLIYGASSRATGVPSRFSGSGSGTEFTLTISDLECADAATYYCQHYNGPPVTFGGGTEVVVK
Consider B10, for which the binding entry in test [3] and in test [9] was “binds” throughout.

B11: 17H9_rb_IGHV1S7_J3+IGKV1S34_JK1-5 (antibody, V domains shown)
VH: B10 VH
VL: B10 VL with G101E, G102E, E104K, V105L, V106E, V107I
Consider B11, for which the binding result in test [3] and in [9] was “binds” in each case.

B12: 7G6 (antibody, V domains shown)
VH: QVQLVESGGGVVQPGRSLRLSCAASGIAFNDYTMHWVRRSPDKGLEWVAAISYGGTNKYYADSVKGRFTISRDSSKNTLFLQMDSLRVEDTAVYYCARDSGYRSLLHWGQGTLVTVSS
VL: EIVLTQSPLSLPVTPGEPASISCRSSQSLVHRNGYNYLDWYLQKPGQSPQLLIYMASKRASGVPDRFSGSGSGTEFTLKISRVEAEDVGIYYCMQALQTWTFGQGTKVEVN
notes: Fully human monoclonal antibody, wild-type variable regions; tested as IgG; also called MY006-7G6
Turning to B12, the binding entry in [6] was “binds”.

B13: 7G6 human-mouse IgG chimera (antibody, V domains shown)
VH: B12 VH
VL: B12 VL
With B13, the binding result in test [2] is listed as “binds”.

B14: 7G6 Fab (Fab, V domains shown)
VH: B12 VH
VL: B12 VL
On to B14, for which the binding entry in test [1] is “binds”.

B15: 17H9 Fab (Fab, V domains shown)
VH: QVQLEEYGGGVVQPGRSLRLSCVASGSTLGTYGMHWVRQAPGKGLEWVAIISPDGGHQDYADPVRGRFTVSRDNSKNTLYLQMDNLRVEDTAVYYCATTLCARTDCTWVRSDSWGQGTLVTVSS
VL: ANVLTQSPGTLSLSPGERATLSCRASQRVSGDYLAWYQQKRGQAPRLLIYGASSRATGIPDRFSGSGSGTDFTLTISRLEPEDFAVYYCQHYNGPPVTFGQGTKLEIK
For B15, the binding result in test [1] was “binds”.

B16: 17H9 human-mouse IgG chimera (antibody, V domains shown)
VH: B15 VH
VL: B15 VL
In the case of B16, in [2], the binding entry is “binds”.

B17: 15E3_G4 (Fc fusion, not shown: a dimerising Fc or GST; small tags and cut ends)
scFv: QSVLTQPPSVSAAPGQKVTISCSGTGSNIGHNYVSWYQQLPGTAPKLLIYDNTKRPSGIPDRFSGSKSGTSATLGITGLQTGDEADYYCATWDADLSAVLFGTGTKLTVLGGGGSGGGGSGGGGSGGGGSQVQLVQSGGGLVQPGGSLRLSCAASGFKFSTFYMTWVRQAPGKGLEWVSNIKQDGSEKDYLDSVRGRFTISRDNSKNTLYLQMNSLRAEDTAVYYCAANGLQDSYSGDFFDHWGQGTLVTVSS
Consider B17, for which the binding result in test [4] and in [5] was “binds” throughout.

(Values after patent US20250320282A1 (MABYLON, published 2025).)
